# Experimental data published in the supplement of paper PMC12889115.
# Some of the results follow. These are raw signals, not scaled to a control.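 Primary screen: polymyxin B was added at a level permeabilizing Salmonella outer membranes while sparing inner membranes. DMSO wells, both with and without polymyxin B, established maximum growth. Plate-to-plate variation meant each plate was ranked on its own, and the lowest-OD600 compounds were selected as hits.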
# System: Salmonella enterica serovar Typhimurium SL1344
# Assay: bacterial growth OD600 after 18 h with compound and polymyxin B; higher = more bacterial growth (less inhibition)
# Conditions: 50 µM, Mueller-Hinton broth
Compound,bacterial growth OD600 (polymyxin B 1 µg/mL),bacterial growth OD600 (polymyxin B 0.75 µg/mL)
CC#CC(=O)NC1CC(C)(C)Cc2c1cnn2-c1ccc(OC)cc1 (stereo not given),0.93,–
CC(c1ccon1)N(C)C(=O)c1coc(COc2ccccc2)n1 (stereo not given),0.997,–
CCOC(=O)N1CCN(C(=O)c2ccc(N3CCC(NC(C)c4cn(C)nc4C)CC3)cc2)CC1 (stereo not given),–,0.83
COc1ccccc1CCNC(=O)Cc1ccc(N2CCC(NCc3nonc3C)CC2)cc1,–,0.791
C=CCOc1cccc(C(=O)N2CCC(CC3CCCCO3)(C(=O)OCC)CC2)c1 (stereo not given),0.885,–
CC(=O)c1ccc(NC(=O)N2CCc3onc(-c4ccccc4F)c3C2)cc1,–,0.715
Cc1ccccc1CC(C1CCN(C(=O)/C=C/c2cccs2)CC1)N(C)C(=O)C1CCC1 (stereo not given),–,0.001
COc1ccc(CN2CCC(C(Cc3ccccc3F)N(C)Cc3cn(C)nc3C)CC2)c(O)c1 (stereo not given),–,0.943
COC(=O)C1CCCCN1C(=O)CCc1nnc(CCc2cccc(OC)c2)o1 (stereo not given),0.911,–
O=C(NC1CC1)C1CCN(C2CCN(C(=O)c3csc4c3CCCC4)CC2)CC1,0.87,–
CN(CC1CCCN(CCc2ccccc2F)C1)C(=O)c1ccc2nccnc2c1 (stereo not given),1.05,–
C=CCC(O)(CC=C)CNC1CCN(c2ccc(NC(=O)c3ccc(C)cc3C)cc2)CC1,–,0.736
CN(Cc1cccnc1)Cc1cnc(S(C)(=O)=O)n1CC1CCCO1 (stereo not given),0.906,–
COc1ccc(OC)c(CN2CC[C@@H](N3CCN(c4ccccn4)CC3)[C@H](O)C2)c1,–,0.765
CCC(=O)N1CCCC(CCc2ccccc2C)C1 (stereo not given),–,0.608
Cc1oc(-c2cc3c(cc2Cl)OCO3)nc1CN(CCO)Cc1cccs1,0.68,–
COc1ccccc1CCN1CCC(CN(C)C(=O)CCc2c(C)noc2C)CC1,1.08,–
CCOC(=O)C1(Cc2ccccc2F)CCCN(C(=O)CCN2CCCCC2=O)C1 (stereo not given),0.876,–
O=C(NCC1Cc2cc(-c3ccsc3)cc(Cl)c2O1)[C@@H]1C[C@@H]2C=C[C@H]1C2 (stereo not given in full),–,0.209
CN(C)S(=O)(=O)NC1CC(=O)N(Cc2cccc3ccccc23)C1 (stereo not given),1.17,–
COc1cccc(-c2n[nH]c3c2CN(C(=O)C2=C(C)OCCO2)CC3)c1,–,0.823
COc1cccc(-c2cc(CC3(O)CCN(Cc4cnn(C)c4)CC3)on2)c1,–,0.822
CC1(C)[C@H]2CC=C(CCNC3CCN(c4ccc(C(=O)NCc5cccnc5)cc4)CC3)[C@@H]1C2,–,0.7
CN(C)c1ncc2c(n1)CCCC2NC1CCCC1 (stereo not given),0.909,–
CCN(Cc1ccccc1)C(=O)CCc1nnc(CCc2ccc(OC)cc2)o1,0.795,–
CCOC(=O)N1CCN(Cc2nc(-c3ccc(C(F)(F)F)cc3)oc2C)CC1,0.445,–
COCCN(C(=O)CC1(c2ccccc2)CC(=O)N(CCCOc2cccnc2)C1=O)C(C)C (stereo not given),–,0.825
COCC(=O)N1CCC(Oc2ccc(C(=O)N3CCC(Cc4ccccc4)CC3)cc2)CC1,0.806,–
COC(C(=O)NCc1c(C)ncc2c1CCN(C(=O)CCn1nc(C)cc1C)C2)c1ccccc1 (stereo not given),–,0.729
CN(Cc1nccs1)c1ccc(-c2nc(Cc3ccc(F)cc3)no2)cn1,–,0.364

# Pulled one by one from above (2):
Compound,bacterial growth OD600 (polymyxin B 1 µg/mL),bacterial growth OD600 (polymyxin B 0.75 µg/mL)
Cc1oc(-c2cc3c(cc2Cl)OCO3)nc1CN(CCO)Cc1cccs1,0.68,–
Cc1ccccc1CC(C1CCN(C(=O)/C=C/c2cccs2)CC1)N(C)C(=O)C1CCC1 (stereo not given),–,0.001
